Source: the supplement of paper PMC8728848
The list shows a part of the results.

Columns and labels:
Assay in all cases: glycan array binding signal (z-score within array); higher = stronger binding
Settings in all cases: glycan notation: IUPAC condensed, linker removed
[1] = target: Neu5Ac(a2-3)Gal(b1-3)[Fuc(a1-4)]GlcNAc(b1-3)Gal(b1-4)[Fuc(a1-3)]GlcNAc
Outline: (§1)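 The binding signal is a Z-score computed within each array and averaged over linkers. Arrays of the same protein sequence at different concentrations or buffers were also averaged together. Data originate from 3228 arrays in the Consortium for Functional Glycomics database, kept only where the protein sequence was available.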

[2] = target: Neu5Ac(a2-3)Gal(b1-3)[GlcNAc(b1-6)]GalNAc
Outline: as §1

[3] = target: Neu5Ac(a2-3)Gal(b1-3)[Neu5Ac(a2-3)Gal(b1-4)]GlcNAc
Outline: as §1

[4] = target: Neu5Ac(a2-3)Gal(b1-3)[Neu5Ac(a2-6)]GalNAc
Outline: as §1

[5] = target: Neu5Ac(a2-3)Gal(b1-3)[Neu5Ac(a2-6)]GlcNAc(b1-3)[Fuc(a1-3)[Gal(b1-4)]GlcNAc(b1-6)]Gal(b1-4)Glc
Outline: as §1

[6] = target: Neu5Ac(a2-3)Gal(b1-3)]Neu5Ac(a2-3)Gal(b1-4)]GlcNAc
Outline: as §1

[7] = target: Neu5Ac(a2-3)Gal(b1-4)Glc
Outline: as §1

[8] = target: Neu5Ac(a2-3)Gal(b1-4)GlcNAc
Outline: as §1

[9] = target: Neu5Ac(a2-3)Gal(b1-4)GlcNAc(b1-2)Man
Outline: as §1

[10] = target: Neu5Ac(a2-3)Gal(b1-4)GlcNAc(b1-2)Man(a1-3)[GlcNAc(b1-2)Man(b1-4)GlcNAc(b1-2)Man(a1-6)]Man(b1-4)GlcNAc(b1-4)GlcNAc
Outline: as §1

[11] = target: Neu5Ac(a2-3)Gal(b1-4)GlcNAc(b1-2)Man(a1-3)[GlcNAc(b1-4)][Neu5Ac(a2-3)Gal(b1-4)GlcNAc(b1-2)Man(a1-6)]Man(b1-4)GlcNAc(b1-4)GlcNAc
Outline: as §1

[12] = target: Neu5Ac(a2-3)Gal(b1-4)GlcNAc(b1-2)Man(a1-3)[Neu5Ac(a2-3)Gal(b1-4)GlcNAc(b1-2)Man(a1-6)]Man(b1-4)GlcNAc(b1-4)GlcNAc
Outline: as §1

[13] = target: Neu5Ac(a2-3)Gal(b1-4)GlcNAc(b1-2)Man(a1-3)[Neu5Ac(a2-3)Gal(b1-4)GlcNAc(b1-2)Man(a1-6)]Man(b1-4)GlcNAc(b1-4)[Fuc(a1-6)]GlcNAc
Outline: as §1

[14] = target: Neu5Ac(a2-3)Gal(b1-4)GlcNAc(b1-2)Man(a1-3)[Neu5Ac(a2-6)Gal(b1-4)GlcNAc(b1-2)Man(a1-6)]Man(b1-4)GlcNAc(b1-4)GlcNAc
Outline: as §1

[15] = target: Neu5Ac(a2-3)Gal(b1-4)GlcNAc(b1-2)[Neu5Ac(a2-3)Gal(b1-4)GlcNAc(b1-4)]Man(a1-3)[GlcNAc(b1-4)][Neu5Ac(a2-3)Gal(b1-4)GlcNAc(b1-2)[Neu5Ac(a2-3)Gal(b1-4)GlcNAc(b1-6)]Man(a1-6)]Man(b1-4)GlcNAc(b1-4)GlcNAc
Outline: as §1

[16] = target: Neu5Ac(a2-3)Gal(b1-4)GlcNAc(b1-2)[Neu5Ac(a2-3)Gal(b1-4)GlcNAc(b1-4)]Man(a1-3)[GlcNAc(b1-4)][Neu5Ac(a2-3)Gal(b1-4)GlcNAc(b1-4)Man(a1-6)]Man(b1-4)GlcNAc(b1-4)GlcNAc
Outline: as §1

[17] = target: Neu5Ac(a2-3)Gal(b1-4)GlcNAc(b1-2)[Neu5Ac(a2-3)Gal(b1-4)GlcNAc(b1-6)]Man(a1-6)[Neu5Ac(a2-3)Gal(b1-4)GlcNAc(b1-2)Man(a1-3)][GlcNAc(b1-4)]Man(b1-4)GlcNAc(b1-4)GlcNAc
Outline: as §1

[18] = target: Neu5Ac(a2-3)Gal(b1-4)GlcNAc(b1-3)Gal
Outline: as §1

[19] = target: Neu5Ac(a2-3)Gal(b1-4)GlcNAc(b1-3)Gal(b1-3)GlcNAc
Outline: as §1

[20] = target: Neu5Ac(a2-3)Gal(b1-4)GlcNAc(b1-3)Gal(b1-4)GlcNAc
Outline: as §1

[21] = target: Neu5Ac(a2-3)Gal(b1-4)GlcNAc(b1-3)Gal(b1-4)GlcNAc(b1-2)Man(a1-3)[Neu5Ac(a2-3)Gal(b1-4)GlcNAc(b1-3)Gal(b1-4)GlcNAc(b1-2)Man(a1-6)]Man(b1-4)GlcNAc(b1-4)GlcNAc
Outline: as §1

[22] = target: Neu5Ac(a2-3)Gal(b1-4)GlcNAc(b1-3)Gal(b1-4)GlcNAc(b1-3)Gal(b1-4)GlcNAc
Outline: as §1

[23] = target: Neu5Ac(a2-3)Gal(b1-4)GlcNAc(b1-3)Gal(b1-4)GlcNAc(b1-3)Gal(b1-4)GlcNAc(b1-2)Man(a1-3)[Neu5Ac(a2-3)Gal(b1-4)GlcNAc(b1-3)Gal(b1-4)GlcNAc(b1-3)Gal(b1-4)GlcNAc(b1-2)Man(a1-6)]GalNAc
Outline: as §1

[24] = target: Neu5Ac(a2-3)Gal(b1-4)GlcNAc(b1-3)Gal(b1-4)GlcNAc(b1-3)GalNAc
Outline: as §1

[25] = target: Neu5Ac(a2-3)Gal(b1-4)GlcNAc(b1-3)Gal(b1-4)GlcNAc(b1-3)[Neu5Ac(a2-3)Gal(b1-4)GlcNAc(b1-3)Gal(b1-4)GlcNAc(b1-6)]GalNAc
Outline: as §1

[26] = target: Neu5Ac(a2-3)Gal(b1-4)GlcNAc(b1-3)Gal(b1-4)GlcNAc(b1-6)[Gal(b1-3)]GalNAc
Outline: as §1

[27] = target: Neu5Ac(a2-3)Gal(b1-4)GlcNAc(b1-3)Gal(b1-4)[Fuc(a1-3)]GlcNAc
Outline: as §1

[28] = target: Neu5Ac(a2-3)Gal(b1-4)GlcNAc(b1-3)GalNAc
Outline: as §1

[29] = target: Neu5Ac(a2-3)Gal(b1-4)GlcNAc(b1-3)[Neu5Ac(a2-3)Gal(b1-4)GlcNAc(b1-6)]GalNAc
Outline: as §1

[30] = target: Neu5Ac(a2-3)Gal(b1-4)GlcNAc(b1-6)GalNAc
Outline: as §1

[31] = target: Neu5Ac(a2-3)Gal(b1-4)GlcNAc(b1-6)[Gal(b1-3)]GalNAc
Outline: as §1

[32] = target: Neu5Ac(a2-3)Gal(b1-4)GlcNAc(b1-6)[Neu5Ac(a2-3)Gal(b1-3)]GalNAc
Outline: as §1

[33] = target: Neu5Ac(a2-3)Gal(b1-4)GlcNAc6S
Outline: as §1

[34] = target: Neu5Ac(a2-3)Gal(b1-4)[Fuc(a1-3)]GlcNAc
Outline: as §1

[35] = target: Neu5Ac(a2-3)Gal(b1-4)[Fuc(a1-3)]GlcNAc(b1-2)Man
Outline: as §1

[36] = target: Neu5Ac(a2-3)Gal(b1-4)[Fuc(a1-3)]GlcNAc(b1-3)Gal
Outline: as §1

[37] = target: Neu5Ac(a2-3)Gal(b1-4)[Fuc(a1-3)]GlcNAc(b1-3)Gal(b1-4)GlcNAc
Outline: as §1

[38] = target: Neu5Ac(a2-3)Gal(b1-4)[Fuc(a1-3)]GlcNAc(b1-3)Gal(b1-4)[Fuc(a1-3)]GlcNAc(b1-3)Gal(b1-4)[Fuc(a1-3)]GlcNAc
Outline: as §1

B1: MFG-E8 (Mus musculus), P21956 (protein)
chain: MQVSRVLAALCGMLLCASGLFAASGDFCDSSLCLNGGTCLTGQDNDIYCLCPEGFTGLVCNETERGPCSPNPCYNDAKCLVTLDTQRGDIFTEYICQCPVGYSGIHCETETNYYNLDGEYMFTTAVPNTAVPTPAPTPDLSNNLASRCSTQLGMEGGAIADSQISASSVYMGFMGLQRWGPELARLYRTGIVNAWTASNYDSKPWIQVNLLRKMRVSGVMTQGASRAGRAEYLKTFKVAYSLDGRKFEFIQDESGGDKEFLGNLDNNSLKVNMFNPTLEAQYIKLYPVSCHRGCTLRFELLGCELHGCSEPLGLKNNTIPDSQMSASSSYKTWNLRAFGWYPHLGRLDNQGKINAWTAQSNSAKEWLQVDLGTQRQVTGIITQGARDFGHIQYVASYKVAHSDDGVQWTVYEEQGSSKVFQGNLDNNSHKKNIFEKPFMARYVRVLPVSWHNRITLRLELLGC
Q: How did the “glycan array binding signal (z-score)” value [1] turn out when B1 was run?
A: -0.065

Q: What about the “glycan array binding signal (z-score)” value [2] of the same binder?
A: -0.312

Q: What about the “glycan array binding signal (z-score)” value [3] of the same binder?
A: -0.143

Q: And the “glycan array binding signal (z-score)” value [4]?
A: 0.065

Q: What about the “glycan array binding signal (z-score)” value [5] of the same binder?
A: 1.34

Q: And the “glycan array binding signal (z-score)” value [6]?
A: -0.045

Q: What about the “glycan array binding signal (z-score)” value [7] of the same binder?
A: -0.419

Q: What about the “glycan array binding signal (z-score)” value [8] of the same binder?
A: -0.765

Q: And the “glycan array binding signal (z-score)” value [9]?
A: 0.704

Q: And the “glycan array binding signal (z-score)” value [10]?
A: 0.508

Q: What about the “glycan array binding signal (z-score)” value [11] of the same binder?
A: -0.344

Q: What about the “glycan array binding signal (z-score)” value [12] of the same binder?
A: -0.494

Q: What about the “glycan array binding signal (z-score)” value [13] of the same binder?
A: -0.579

Q: And the “glycan array binding signal (z-score)” value [14]?
A: -0.489

Q: And the “glycan array binding signal (z-score)” value [15]?
A: -0.599

Q: What about the “glycan array binding signal (z-score)” value [16] of the same binder?
A: 0.066

Q: And the “glycan array binding signal (z-score)” value [17]?
A: -0.314

Q: And the “glycan array binding signal (z-score)” value [18]?
A: 0.469

Q: What about the “glycan array binding signal (z-score)” value [19] of the same binder?
A: -0.099

Q: What about the “glycan array binding signal (z-score)” value [20] of the same binder?
A: -0.548

Q: And the “glycan array binding signal (z-score)” value [21]?
A: -0.011

Q: And the “glycan array binding signal (z-score)” value [22]?
A: 0.201

Q: And the “glycan array binding signal (z-score)” value [23]?
A: 0.779

Q: What about the “glycan array binding signal (z-score)” value [24] of the same binder?
A: 0.014

Q: And the “glycan array binding signal (z-score)” value [25]?
A: -0.512

Q: What about the “glycan array binding signal (z-score)” value [26] of the same binder?
A: -0.309

Q: And the “glycan array binding signal (z-score)” value [27]?
A: 1.23

Q: And the “glycan array binding signal (z-score)” value [28]?
A: -0.271

Q: What about the “glycan array binding signal (z-score)” value [29] of the same binder?
A: -0.348

Q: What about the “glycan array binding signal (z-score)” value [30] of the same binder?
A: 0.917

Q: What about the “glycan array binding signal (z-score)” value [31] of the same binder?
A: -0.065

Q: What about the “glycan array binding signal (z-score)” value [32] of the same binder?
A: -0.655

Q: And the “glycan array binding signal (z-score)” value [33]?
A: -0.285

Q: And the “glycan array binding signal (z-score)” value [34]?
A: -0.186

Q: And the “glycan array binding signal (z-score)” value [35]?
A: 0.327

Q: And the “glycan array binding signal (z-score)” value [36]?
A: -0.581

Q: What about the “glycan array binding signal (z-score)” value [37] of the same binder?
A: 0.264

Q: What about the “glycan array binding signal (z-score)” value [38] of the same binder?
A: -0.238
